Where two headings read alike, the source gives them in different places. Results are given in words; binding and its absence hold for the method and conditions named. Binding seen in cells or lysates may run through a third protein. Some entries that bind do so weakly or less than the wild type. For some of these results: Sequences can lack the tags named with a protein.
Tests used:
Experiment in all cases: co-IP
[1] = molecular target: N-terminal domain (residues 1–99) of rU1-70K (UniProt P08621)
[2] = molecular target: T1, full-length recombinant GST-fused and Myc-tagged LUC7L3 (rLUC7L3) (UniProt O95232)
T1 sequence: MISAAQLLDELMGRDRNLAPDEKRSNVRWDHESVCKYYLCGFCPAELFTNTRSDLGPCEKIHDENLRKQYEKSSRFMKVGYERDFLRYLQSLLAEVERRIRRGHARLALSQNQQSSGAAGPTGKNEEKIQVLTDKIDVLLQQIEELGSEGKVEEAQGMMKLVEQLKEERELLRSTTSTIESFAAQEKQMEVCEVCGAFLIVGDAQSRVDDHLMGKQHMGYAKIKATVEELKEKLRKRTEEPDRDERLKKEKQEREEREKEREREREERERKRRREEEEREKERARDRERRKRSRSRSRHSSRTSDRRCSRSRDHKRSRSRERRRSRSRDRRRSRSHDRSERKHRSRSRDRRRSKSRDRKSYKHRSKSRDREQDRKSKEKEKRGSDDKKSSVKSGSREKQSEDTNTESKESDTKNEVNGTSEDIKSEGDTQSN

The chains behind the UniProt entries cited, without tags or fusion partners. Where a name states a change or a piece, a line headed by the entry shows the natural chain unless it says otherwise. A line that says so, or that is headed by a name, gives the form on record, which may keep a tag or linker. Residues count along the entry.
UniProt P08621: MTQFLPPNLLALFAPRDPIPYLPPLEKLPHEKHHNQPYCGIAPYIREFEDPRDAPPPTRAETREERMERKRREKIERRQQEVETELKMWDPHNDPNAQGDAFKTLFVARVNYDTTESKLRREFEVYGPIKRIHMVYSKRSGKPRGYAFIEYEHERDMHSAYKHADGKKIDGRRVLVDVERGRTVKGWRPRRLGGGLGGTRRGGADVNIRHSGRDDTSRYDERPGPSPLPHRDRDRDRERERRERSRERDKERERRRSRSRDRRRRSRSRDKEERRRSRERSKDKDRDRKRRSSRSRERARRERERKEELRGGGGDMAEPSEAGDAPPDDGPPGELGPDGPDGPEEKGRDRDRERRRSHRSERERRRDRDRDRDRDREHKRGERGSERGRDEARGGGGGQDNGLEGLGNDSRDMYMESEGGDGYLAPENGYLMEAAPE
rU1-70K N-terminus and RNA recognition motif (residues 1–181): residues 1-181 of P08621
N-terminal domain (residues 1–99) of rU1-70K: residues 1-99 of P08621
LC1 domain (residues 231–308) of rU1-70K: residues 231-308 of P08621
LC2 domain alone (317–407) of rU1-70K: residues 317-407 of P08621
rU1-70K ΔLC2 (P08621, form named): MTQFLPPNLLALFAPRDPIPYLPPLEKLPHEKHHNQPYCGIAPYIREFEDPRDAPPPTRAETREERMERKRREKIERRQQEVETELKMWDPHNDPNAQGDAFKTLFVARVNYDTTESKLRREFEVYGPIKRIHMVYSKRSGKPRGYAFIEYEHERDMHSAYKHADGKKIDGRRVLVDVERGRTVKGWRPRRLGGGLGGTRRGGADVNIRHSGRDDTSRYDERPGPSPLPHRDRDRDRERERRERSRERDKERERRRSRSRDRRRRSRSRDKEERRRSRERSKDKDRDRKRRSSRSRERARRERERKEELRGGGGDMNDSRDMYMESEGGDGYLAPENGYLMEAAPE
rU1-70K ΔLC1 (P08621, form named): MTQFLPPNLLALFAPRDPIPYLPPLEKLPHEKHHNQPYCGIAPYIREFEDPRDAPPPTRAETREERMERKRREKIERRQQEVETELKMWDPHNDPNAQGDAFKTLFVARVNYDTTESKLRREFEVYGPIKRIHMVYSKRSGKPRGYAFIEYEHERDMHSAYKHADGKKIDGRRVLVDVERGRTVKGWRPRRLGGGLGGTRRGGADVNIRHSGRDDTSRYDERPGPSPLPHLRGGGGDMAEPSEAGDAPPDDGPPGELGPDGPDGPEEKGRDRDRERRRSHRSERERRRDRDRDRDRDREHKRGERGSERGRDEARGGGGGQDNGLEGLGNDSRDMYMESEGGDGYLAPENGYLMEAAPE
UniProt P49756: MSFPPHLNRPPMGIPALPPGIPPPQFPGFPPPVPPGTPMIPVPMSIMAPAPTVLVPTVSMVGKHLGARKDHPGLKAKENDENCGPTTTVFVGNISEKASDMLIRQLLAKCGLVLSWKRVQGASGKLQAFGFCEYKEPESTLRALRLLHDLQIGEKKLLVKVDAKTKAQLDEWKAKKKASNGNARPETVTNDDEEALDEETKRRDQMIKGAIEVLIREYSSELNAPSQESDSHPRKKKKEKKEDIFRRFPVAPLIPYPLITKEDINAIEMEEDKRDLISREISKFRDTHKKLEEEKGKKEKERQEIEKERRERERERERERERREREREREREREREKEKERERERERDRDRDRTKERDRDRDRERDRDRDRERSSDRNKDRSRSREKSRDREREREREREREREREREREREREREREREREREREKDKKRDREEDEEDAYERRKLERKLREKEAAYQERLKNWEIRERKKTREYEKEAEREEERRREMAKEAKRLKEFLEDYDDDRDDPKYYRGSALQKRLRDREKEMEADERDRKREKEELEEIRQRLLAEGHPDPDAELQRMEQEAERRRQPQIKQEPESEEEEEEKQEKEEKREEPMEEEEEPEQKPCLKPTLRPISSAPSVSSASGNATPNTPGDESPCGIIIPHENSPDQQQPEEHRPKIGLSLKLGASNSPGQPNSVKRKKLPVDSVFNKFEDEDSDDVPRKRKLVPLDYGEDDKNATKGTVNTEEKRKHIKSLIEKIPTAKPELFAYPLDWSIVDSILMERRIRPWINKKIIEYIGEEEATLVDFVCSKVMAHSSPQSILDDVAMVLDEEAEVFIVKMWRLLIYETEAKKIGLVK
UniProt Q07955: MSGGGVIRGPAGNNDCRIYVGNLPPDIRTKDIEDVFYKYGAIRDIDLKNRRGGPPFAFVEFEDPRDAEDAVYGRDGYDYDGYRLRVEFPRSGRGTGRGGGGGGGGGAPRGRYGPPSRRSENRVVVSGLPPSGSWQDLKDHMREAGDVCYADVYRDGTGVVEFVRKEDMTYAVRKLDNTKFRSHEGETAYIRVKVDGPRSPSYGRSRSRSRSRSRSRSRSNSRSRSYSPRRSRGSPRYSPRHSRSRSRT
UniProt P09012: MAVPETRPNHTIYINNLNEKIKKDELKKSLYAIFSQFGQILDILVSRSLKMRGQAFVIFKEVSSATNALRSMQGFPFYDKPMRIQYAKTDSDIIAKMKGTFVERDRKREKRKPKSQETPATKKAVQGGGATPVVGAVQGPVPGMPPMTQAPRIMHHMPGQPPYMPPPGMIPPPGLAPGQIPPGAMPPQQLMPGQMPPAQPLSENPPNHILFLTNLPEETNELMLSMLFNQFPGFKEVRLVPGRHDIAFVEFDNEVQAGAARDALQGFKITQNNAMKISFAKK
UniProt Q13148: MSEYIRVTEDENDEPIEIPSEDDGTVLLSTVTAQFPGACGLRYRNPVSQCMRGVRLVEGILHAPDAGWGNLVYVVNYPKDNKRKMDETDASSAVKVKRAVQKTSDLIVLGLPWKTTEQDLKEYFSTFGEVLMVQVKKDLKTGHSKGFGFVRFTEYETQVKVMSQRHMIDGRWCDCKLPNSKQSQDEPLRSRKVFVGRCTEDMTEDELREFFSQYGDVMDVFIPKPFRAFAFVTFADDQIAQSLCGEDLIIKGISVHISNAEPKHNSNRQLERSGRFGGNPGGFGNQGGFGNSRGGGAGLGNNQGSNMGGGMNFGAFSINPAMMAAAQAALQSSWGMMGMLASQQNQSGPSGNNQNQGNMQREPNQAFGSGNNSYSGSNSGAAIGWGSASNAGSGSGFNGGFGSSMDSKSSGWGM

[3] = molecular target: full-length recombinant GST-fused and Myc-tagged RBM25 (rRBM25) (UniProt P49756)
[4] = molecular target: LC1 domain (residues 231–308) of rU1-70K (UniProt P08621)
[5] = molecular target: rU1-70K N-terminus and RNA recognition motif (residues 1–181) (UniProt P08621)
[6] = molecular target: rU1-70K ΔLC2 (UniProt P08621)
[7] = molecular target: full-length recombinant GST-fused and Myc-tagged U1-70K (rU1-70K) (UniProt P08621)
[8] = molecular target: LC2 domain alone (317–407) of rU1-70K (UniProt P08621)
[9] = molecular target: rU1-70K ΔLC1 (UniProt P08621)
[10] = molecular target: T1, full-length recombinant GST-fused and Myc-tagged LUC7L3 (rLUC7L3); remark: listed apart in the source
[11] = molecular target: full-length recombinant GST-fused and Myc-tagged RBM25 (rRBM25) (UniProt P49756); remark: listed apart in the source
[12] = molecular target: rU1-70K ΔLC2 (UniProt P08621); remark: listed apart in the source
[13] = molecular target: full-length recombinant GST-fused and Myc-tagged U1-70K (rU1-70K) (UniProt P08621); remark: listed apart in the source

Measured: binding

endogenous U1-70K (from UniProt P08621 1-437)
binds: [2] | [3] | [4] | [6] | [7]
no binding: [1] | [5] | [8]

SRSF1 (from UniProt Q07955 1-248)
binds: [6] | [7]

U1A (from UniProt P09012 1-282)
binds: [6] | [7]

TDP-43 (from UniProt Q13148 1-414)
binds: [6] | [7] | [9]

B1: endogenous LUC7L3 (protein, UniProt O95232 1-432)
chain: MISAAQLLDELMGRDRNLAPDEKRSNVRWDHESVCKYYLCGFCPAELFTNTRSDLGPCEKIHDENLRKQYEKSSRFMKVGYERDFLRYLQSLLAEVERRIRRGHARLALSQNQQSSGAAGPTGKNEEKIQVLTDKIDVLLQQIEELGSEGKVEEAQGMMKLVEQLKEERELLRSTTSTIESFAAQEKQMEVCEVCGAFLIVGDAQSRVDDHLMGKQHMGYAKIKATVEELKEKLRKRTEEPDRDERLKKEKQEREEREKEREREREERERKRRREEEEREKERARDRERRKRSRSRSRHSSRTSDRRCSRSRDHKRSRSRERRRSRSRDRRRSRSHDRSERKHRSRSRDRRRSKSRDRKSYKHRSKSRDREQDRKSKEKEKRGSDDKKSSVKSGSREKQSEDTNTESKESDTKNEVNGTSEDIKSEGDTQSN
binds: [10] | [11] | [12] | [13]
